Where “and” joins values, the source holds several entries; their conditions need not be identical. Equal entries are not always repeated. Shown are results outside the selection of hits, which stands elsewhere. Results filed as inconclusive are left out. Calls of active or inactive are those of the source. The call rests on the fitted dose curve; tested in HEK293 cells.
Experiment: qHTS for Inhibitors of binding or entry into cells for Marburg Virus
Details: Marburg virus pseudotype entry/binding inhibition, cell-based; at 49.2 µM (top of the series)
On the % scale 0 is the no-effect control and ±100 the full control effect.

Compound	activity change, negative = inhibition
O=C(CCCCCCC(=O)Nc1ccccc1)NO	inactive: -7.8% and inactive: -10.1%
